Measurements as given in paper PMC6764124, “Baricitinib reverses HIV-associated neurocognitive disorders in a SCID mouse model and reservoir seeding in vitro” (Journal of Neuroinflammation, 2019).

Experiments:
[1] = test system: HIV-1baL; assay: Antiviral activity in primary human macrophages (p24 ELISA); format: cell-based; conditions: Human immunodeficiency virus 1, Macrophage, read-out: EC50 inhibition of HIV replication in macrophages
From the text: Mϕ and monocytes were isolated as previously described. […] Cells were maintained for 6 days before viral quantification (p24-ELISA). For in vitro activation marker studies, CD14^+ monocytes or fully differentiated (CD14^−/CD11b^+) Mϕ were used. Monocytes were used as a model to mimic HIV-induced activation that transpires in the periphery, wherein presence or internalization of HIV-1 in monocytes confers activation (CD14^+/CD16^+) and subsequent trafficking of “Trojan horse” monocytes across and within the BBB [11, 12]. The method used to differentiate Mϕ (CD14^−/CD11b^+) has been validated by our group to ensure that these cells are no longer expressing monocyte marker CD14 and are mature Mϕ (CD11b expression). Mϕ or monocytes were treated with various concentrations of drug prior to infection (HIV-1baL) and maintained for 3 days before quantification of HLA-DR, CD163 (Mϕ), or CD14/CD16 (monocytes; Miltenyi Biotec, San Diego, CA). Mϕ and monocytes were treated with various concentrations of drug for 6 days and stained with Near-IR live/dead dye and quantified by FACS. Antiviral potency was calculated as previously described.

[2] = test system: HIV replication in primary PBM cells; assay: Antiviral activity in activated peripheral blood mononuclear (PBM) cells; format: cell-based, HIV-1; conditions: Human immunodeficiency virus 1, PBMC, read-out: EC50 inhibition of HIV replication in PBM cells
[3] = test system: latent HIV-1 in primary human Mϕ; assay: PMA-induced reactivation of HIV-1 from latent primary human macrophages (p24 ELISA); format: cell-based; conditions: Macrophage, 50 ng/mL PMA, 24 h, read-out: EC50 inhibition of PMA induced reactivation
Experimental: Primary human Mϕ were prepared as described above and infected with an MOI of 0.5 with HIV-1BaL for 4 h prior to removal of virus and culture in virus-free medium. Supernatants were collected every 5 days, and extracellular p24 production was monitored (p24 ELISA, ABL, Inc.). Fresh culture medium was added to cultures every 5 days as supernatants were collected for p24 analysis. When extracellular p24 levels were below limit of detection (about 30 days post-infection), cells were incubated with various concentrations of baricitinib (0.001, 0.01, 0.1, 1.0, 10 μM), 3TC (negative control; same concentrations), or drug-free medium, for 2 h prior to addition of 50 ng/mL phorbol myristate acetate (PMA) to cultures to induce reactivation of latent HIV-1. After 24 h post-reactivation, cellular supernatants were collected, and extracellular reactivated p24 was quantified (p24 ELISA). Percent inhibition of reactivation was calculated versus no drug controls, and EC50/90 were calculated as previously described.

[4] = test system: HAND mice (IC injection of HIV-infected human MDM); assay: Object recognition testing (ORT) in SCID mouse HAND model; format: in vivo, SCID mice; conditions: days 12 and 13, after 6 and 7 days of treatment
Experimental: Four-week-old B6.CB17-Prkdc^scid/SzJ (SCID) male mice were injected IC with 30 μL of HIV-infected MDMs suspended in 0.9% saline, directly into the frontal lobe of the right hemisphere. The injection was done free-handed (without a stereotactic device). The injection is performed with a syringe that allows a very slow rate of infusion. We have verified the injection site with a histological staining in our previously published works, which is in the basal ganglia as described in Koneru et al.. Injections were performed on day 0 (D0). Treatments (baricitinib or saline) were given subcutaneously (SC). There were 4 groups of mice: (1) control (uninfected MDM) group, (2) HIV-infected MDM (HAND) plus saline, (3) HIV-infected MDM (HAND) + 10 mg/kg baricitinib qd, and (4) HIV-infected MDM (HAND) + 50 mg/kg baricitinib qd (n = 9 per group).
On day 4 post-IC injection, the mice experienced 10 min of acclimatization to a Plexiglas chamber (60 cm × 60 cm). On day 5 post-injection, a “training phase” followed by a “preference test” after a delay of 5 min was performed on each mouse. […] Exploration times were recorded and used to calculate a discrimination index (DI, (time spent with object A minus time spent with object B)/(total time exploring both objects)) for the training and for the test sessions, respectively. […]

[5] = test system: HLA-DR and CD163 in primary human Mϕ; assay: HIV-induced upregulation of activation markers HLA-DR and CD163 in primary human macrophages; format: cell-based; conditions: Macrophage, read-out: EC50 inhibition of HIV-induced HLA-DR and CD163
From the text: Mϕ and monocytes were isolated as previously described. […] Cells were maintained for 6 days before viral quantification (p24-ELISA). For in vitro activation marker studies, CD14^+ monocytes or fully differentiated (CD14^−/CD11b^+) Mϕ were used. […] The method used to differentiate Mϕ (CD14^−/CD11b^+) has been validated by our group to ensure that these cells are no longer expressing monocyte marker CD14 and are mature Mϕ (CD11b expression). […] Miltenyi Biotec, San Diego, CA). Mϕ and monocytes were treated with various concentrations of drug for 6 days and stained with Near-IR live/dead dye and quantified by FACS. Antiviral potency was calculated as previously described. Primary human monocytes or Mϕ were isolated as described above and cultured in the following conditions: […] Cells were harvested and stained for CD14^+ (FITC)/CD16^+ (APC) to quantify HIV-induced activation or impact of drugs on block of these markers.

[6] = test system: non-dividing p24+ primary CD4+ T cells; assay: Frequency of non-dividing p24+ latent primary CD4+ T cells in vitro; format: cell-based; conditions: Homo sapiens, read-out: EC50 reduction of non dividing latent CD4 T cells
[7] = test system: J-lat T cells; assay: TNF-α-induced reactivation of latent HIV-1 in J-lat T cells; format: cell-based; conditions: Homo sapiens, T-cell, read-out: EC50 inhibition of TNF-α induced reactivation

**Q.** Which EC50 [1] does the source give for `CCS(=O)(=O)N1CC(CC#N)(n2cc(-c3ncnc4[nH]ccc34)cn2)C1` [Baricitinib] here?
**A.** 200 ± 100 nM

**Q.** And the EC50 [2]?
**A.** 9 ± 3 nM

**Q.** What about the EC50 [3] of the same compound?
**A.** 90 ± 40 nM

**Q.** What about the “ORT abnormalities (discrimination index)” value ([4]; 10 mg/kg qd SC) of the same compound?
**A.** reversed

**Q.** And the “ORT abnormalities (discrimination index)” value ([4]; 50 mg/kg qd SC)?
**A.** reversed

**Q.** And the EC50 [5]?
**A.** 100 nM

**Q.** And the EC50 [6]?
**A.** 50 ± 20 nM

**Q.** What about the EC50 [7] of the same compound?
**A.** 100 ± 80 nM
